From the supplement of paper PMC10735217
Structures can show the parent of a compound that is named as a salt. The list shows a part of the results. Single values are uncertain here, since repeats match poorly.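 Human kidney-derived cells stably carry a construct in which eight TEAD-binding elements drive luciferase, measured by luminescence in a drug-repurposing library screen. A hit is any compound whose signal exceeds the plate mean by more than five robust Z scores.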

Tested on: HEK293A TEAD-LUC reporter
Experiment: TEAD-luciferase reporter activity (YAP activation), robust Z score vs plate; higher = stronger YAP/TEAD activation
Details: 24 h

Structure (SMILES) | TEAD-luciferase reporter activity (compound concentration: 200 nM) | TEAD-luciferase reporter activity (compound concentration: 2 uM) | TEAD-luciferase reporter activity (compound concentration: 10 uM)
Cc1cccc(C)c1N(CCCc1cccnc1)C(=O)[C@@H](C)N [Milacainide] | inactive: -0.727 | inactive: -0.397 | inactive: -0.29
CCC(C)(CN(C)C)OC(=O)c1ccccc1 (stereo not given) | inactive: 1.04 | inactive: 1.69 | inactive: 1.44
CCCCc1oc2ccccc2c1C(=O)c1cc(I)c(OCCN(CC)CC)c(I)c1 | inactive: -1.45 | – | inactive: 0.0705
CCCCc1oc2ccccc2c1C(=O)c1cc(I)c(OCCN(CC)CC)c(I)c1 [amiodarone] | – | inactive: 0.585 | –
COC(=O)N1CCC(CC#Cc2nc(N)c3ncn([C@@H]4O[C@H](C(=O)NC5CC5)[C@@H](O)[C@H]4O)c3n2)CC1 | inactive: 3.26 | inactive: -0.552 | inactive: -0.178
C=C1C(O)C(CO)OC1n1ccc(N)nc1=O (stereo not given) | inactive: -0.196 | inactive: -0.434 | inactive: 0.334
CN(C)CCOC(c1ccccc1)c1ccc(Br)cc1 (stereo not given) | inactive: 0.956 | inactive: 1.18 | inactive: 0.167
C[C@H](N[C@@H](CCc1ccccc1)C(=O)O)C(=O)N1Cc2ccccc2C[C@H]1C(=O)O [quinaprilat] | inactive: -1.25 | inactive: -0.808 | inactive: 2.08
Nc1c2c(nc3ccccc13)CCCC2 [tacrine, OROS] | – | inactive: -2.39 | –
Nc1c2c(nc3ccccc13)CCCC2 | inactive: 4.34 | – | inactive: 0.0048
Cc1cc(S(C)(=O)=O)c(S(C)(=O)=O)cc1C(=O)NC(=N)N | inactive: -0.697 | inactive: -0.806 | inactive: -0.733
Cc1cccc(COC2CCCC(OCc3coc(-c4ccc(F)cc4)n3)C2)c1C(=O)O (stereo not given) | inactive: -1.73 | inactive: -0.221 | inactive: -1.26
N[C@@H](Cc1cc(I)c(Oc2cc(I)c(O)c(I)c2)c(I)c1)C(=O)O [Levothyroxine sodium] | – | inactive: -1.09 | –
N[C@@H](Cc1cc(I)c(Oc2cc(I)c(O)c(I)c2)c(I)c1)C(=O)O | inactive: -1.21 | – | inactive: 0.307
COCC(C)OC(=O)[C@@H](N)Cc1ccc(O)c(O)c1 (stereo not given in full) | inactive: -0.294 | inactive: -1.19 | inactive: 3.87
CCNC(=O)c1noc(-c2cc(C(C)C)c(O)cc2O)c1-c1ccc(CN2CCOCC2)cc1 [Luminespib] | inactive: -3.21 | inactive: -1.38 | inactive: 0.924
CCC(c1ccc(O)cc1)C(CC)c1ccc(O)cc1 (stereo not given) | inactive: 0.00205 | inactive: 1.08 | inactive: -0.636
O=C1NC2(CCN(Cc3ccc(F)cc3)CC2)Oc2ccccc21 | inactive: 0.137 | – | inactive: -0.309
CC(C)(C)c1cc(C2CCCCC2)ccc1OC(=O)c1ccc[n+]([O-])c1 | inactive: 0.0406 | inactive: 0.916 | inactive: -1.95
Cn1c(-c2ccccc2)nnc1S(C)(=O)=O | inactive: -2.61 | inactive: 0.113 | inactive: 0.801

Structure (SMILES) | TEAD-luciferase reporter activity (compound concentration: 200 nM) | TEAD-luciferase reporter activity (compound concentration: 2 uM) | TEAD-luciferase reporter activity (compound concentration: 10 uM)
CCOCCn1c(C2CCN(CCc3ccc(C(C)(C)C(=O)O)cc3)CC2)nc2ccccc21 [bilastine] | inactive: -1.34 | inactive: 0.531 | inactive: 1.05
CC(C)(C)c1ccc(C(=O)CCCN2CCC(OC(c3ccccc3)c3ccccc3)CC2)cc1 [ebastine] | inactive: 0.513 | inactive: -0.565 | inactive: -0.943
CCN(CC)CCOC(=O)C(c1ccccc1)C1(O)CCCC1 (stereo not given) | inactive: 0.00927 | inactive: -0.551 | inactive: 0.184
CN(C)CCN(Cc1ccccc1)c1ccccn1 | inactive: -0.308 | inactive: 2.11 | inactive: 1.78
CC1(C)CC(=O)c2c(C(F)(F)F)nn(-c3ccc(C(N)=O)c(N[C@H]4CC[C@H](OC(=O)CN)CC4)c3)c2C1 | inactive: -1.26 | inactive: -0.416 | inactive: -3.46
CC1(C)S[C@@H]2[C@H](NC(=O)[C@H](N)c3ccccc3)C(=O)N2[C@H]1C(=O)OCOC(=O)[C@@H]1N2C(=O)C[C@H]2S(=O)(=O)C1(C)C [sultamicillin] | inactive: 1.54 | inactive: -1.25 | inactive: 1.13
O=C(NC1CCCCCC1)c1ccc2nccn2c1 | inactive: -0.963 | – | active: 7.35
CNc1cc(OC)c(C(=O)NC2CCN(Cc3ccccc3)[C@H]2C)cc1Cl (stereo not given in full) [nemonapride] | inactive: 0.0559 | inactive: -1.35 | inactive: -2.14
O=C1CCCCC1(CCN1CCCCCC1)C(=O)OCc1ccccc1 (stereo not given) | inactive: -1.15 | inactive: 0.843 | inactive: 1.05
O=N[O-] [Sodium Nitrite] | inactive: -2.22 | inactive: 0.954 | inactive: 4.34
CCC(C)C1OC2(C=CC1C)CC1CC(C/C=C(\C)C(OC3CC(OC)C(OC4CC(OC)C(NC(C)=O)C(C)O4)C(C)O3)C(C)/C=C/C=C3\COC4C(O)C(C)=CC(C(=O)O1)C34O)O2 (stereo not given) | inactive: 4.32 | inactive: -0.158 | inactive: -0.671
Cc1cc(Nc2ccc(C(F)(F)F)nc2)n2nc(C(C)(F)F)nc2n1 | inactive: -0.822 | inactive: 0.316 | inactive: 4.65
COC(Cc1ccc(OCCCOc2ccc(Oc3ccccc3)cc2)cc1)C(=O)O (stereo not given) | inactive: -0.405 | inactive: 0.956 | inactive: -0.809
CC(C)(C)C(=O)SCC(=O)[C@@]1(O)CCC2C3CCC4=CC(=O)CC[C@]4(C)C3[C@@H](O)C[C@@]21C (stereo not given in full) | inactive: 0.379 | inactive: 1.93 | inactive: 1.78
C=CCCC(=O)NC[C@H]1CN(c2ccc(N3CCOCC3)c(F)c2)C(=O)O1 | inactive: -1.01 | inactive: -0.241 | inactive: 2.58
CN1CCCN=C1/C=C/c1cccc(O)c1 [Oxantel (pamoate)] | inactive: 0.35 | inactive: -0.462 | inactive: 0.00523
CC1CC(OC(=O)c2ccccc2)CC(C)(C)N1 (stereo not given) | inactive: -1.11 | inactive: -0.585 | inactive: -0.817
Oc1ccc(N2CCN(c3ccccc3)CC2)nn1 | inactive: 4.11 | inactive: 1.07 | inactive: -1.45
Ic1ccc2nc(-c3ccccc3)cn2c1 | inactive: 1.36 | inactive: -2.23 | inactive: -0.0965
O=C1Nc2ccccc2CC12CCCN(CC1CC1)C2 (stereo not given) | inactive: -1.02 | – | inactive: 0.395

As entered above.
Value of CC1(C)CC(=O)c2c(C(F)(F)F)nn(-c3ccc(C(N)=O)c(N[C@H]4CC[C@H](OC(=O)CN)CC4)c3)c2C1 under TEAD-luciferase reporter activity (compound concentration: 10 uM): inactive: -3.46
Value of CC1(C)S[C@@H]2[C@H](NC(=O)[C@H](N)c3ccccc3)C(=O)N2[C@H]1C(=O)OCOC(=O)[C@@H]1N2C(=O)C[C@H]2S(=O)(=O)C1(C)C [sultamicillin] under TEAD-luciferase reporter activity (compound concentration: 2 uM): inactive: -1.25

Later entries.

Structure (SMILES) | TEAD-luciferase reporter activity (compound concentration: 200 nM) | TEAD-luciferase reporter activity (compound concentration: 2 uM) | TEAD-luciferase reporter activity (compound concentration: 10 uM)
Cc1nccn1CC1CCc2c(c3cccc4c3n2CCC4)C1=O (stereo not given) | inactive: -0.899 | inactive: -0.323 | inactive: -1.13
O=C(O)[C@@H]1[O][Sb](=[O])([O][Sb]2(=[O])[O][C@H]([C@H](O)CO)[C@H](O)[C@H](C(=O)O)[O]2)[O][C@H]([C@H](O)CO)[C@@H]1O (stereo not given in full) [Sodium stibogluconate] | inactive: 1.19 | inactive: 1.8 | inactive: 0.99
O=C(CCNC(=O)c1ccccc1Cl)NCC12CC3CC(CC(C3)C1)C2 | inactive: 0.202 | inactive: -0.475 | inactive: -0.606
Nc1nc(=O)c2ncn(CC(CO)CO)c2[nH]1 [Tivicilovir] | inactive: 0.395 | inactive: -1.61 | inactive: -0.606
C[C@@H]1CN(C[C@@H](c2cccc(OC(F)(F)F)c2)C2(O)CCCCC2)C[C@H](C)N1 | inactive: -0.318 | inactive: 1.11 | inactive: -1.1
Cc1cc(C(C)(C)C)c(O)c(C)c1CC1=NCCN1 [oxymetazoline, Allergan] | inactive: -0.756 | inactive: -0.695 | inactive: -0.718
COc1nc(C)cnc1NS(=O)(=O)c1cccnc1-c1ccc(CC(C)(C)C(=O)O)cc1 | inactive: -0.129 | inactive: -0.364 | inactive: 1.6
CC(/C=C/[C@@H]1C[C@]1(C)c1ccc2c(c1)C(C)(C)CCC2(C)C)=C\C(=O)O | inactive: -0.185 | inactive: 0.745 | inactive: 2.71
COC(=O)c1[nH]cc(-c2ccc(Br)cc2)c1N1CCOCC1 | inactive: 1.04 | inactive: -1.03 | inactive: -1.29
CC(C)(O)c1ccccc1-c1ccc2[nH]c(/C=C/c3ccc(C(F)(F)F)cc3)nc2c1 [Mavatrep] | inactive: 3.01 | inactive: -0.0843 | inactive: -0.139
O=C1OC(n2cc(F)c(=O)[nH]c2=O)c2ccccc21 (stereo not given) | inactive: -1.12 | inactive: 3.62 | inactive: -1.25
Cc1oc2c(C)c3oc(=O)cc(C)c3cc2c1COCCO | inactive: -0.992 | inactive: -2 | inactive: 1.08
N#Cc1cc(NC(=O)[C@H]2c3ccccc3C(=O)N(CC(F)(F)F)[C@@H]2c2cccnc2)ccc1F | inactive: -0.764 | inactive: -0.358 | inactive: 0.252
Oc1ccc(C2Oc3ccc(O)cc3C3CCCC32)cc1 (stereo not given) | inactive: -1.33 | inactive: -0.0696 | inactive: 0.942
CN1CC[C@@H](c2c(O)cc(O)c3c(=O)cc(-c4ccc(C(F)(F)F)cc4Cl)oc23)[C@@H]1CO [Voruciclib hydrochloride] | inactive: 0.142 | inactive: 1.73 | inactive: 0.371
CCc1nn(CCCN2CCN(c3cccc(Cl)c3)CC2)c(=O)n1CC | inactive: -1.29 | inactive: -1.44 | inactive: 0.696
CCc1nn(CCCN2CCN(c3cccc(Cl)c3)CC2)c(=O)n1CC [etoperidone] | – | inactive: 0.193 | –
CCN(CC)CCOc1cccc(O)c1 | inactive: 2.05 | inactive: 0.936 | inactive: -1.18
